Measurements reported in paper doi:10.1101/2024.05.10.593632.

Legend:
[1] = biological target: SlSAUR38 fused to the GAL4 DNA-binding domain (tomato (Solanum lycopersicum)); experiment: two-hybrid
[2] = biological target: SlLHA4-N-YFPC (tomato (Solanum lycopersicum)); experiment: split reporter
[3] = biological target: SlSAUR36 fused to the GAL4 DNA-binding domain (tomato (Solanum lycopersicum)); experiment: two-hybrid

Substance: SlPP2C.D2 fused to the GAL4 activation domain (from UniProt A0A3Q7FTY4) (enzyme)
- binding [1]: binds

Substance: SlPP2C.D2-N-YFPN (from UniProt A0A3Q7FTY4) (enzyme)
- binding [2]: binds

Substance: SlPP2C.D3 fused to the GAL4 activation domain (from UniProt A0A3Q7FIB7) (enzyme)
- binding [1]: binds

Substance: SlPP2C.D3-N-YFPN (from UniProt A0A3Q7FIB7) (enzyme)
- binding [2]: binds

Substance: SlPP2C.D4 fused to the GAL4 activation domain (from UniProt A0A3Q7GLG9) (enzyme)
- binding [3]: binds

Substance: SlPP2C.D4-N-YFPN (from UniProt A0A3Q7GLG9) (enzyme)
- binding [2]: binds

Substance: SlPP2C.D5 fused to the GAL4 activation domain (from UniProt A0A3Q7GZ61) (enzyme)
- binding [3]: binds

Substance: SlPP2C.D5-N-YFPN (from UniProt A0A3Q7GZ61) (enzyme)
- binding [2]: binds

Results are given in words; binding and its absence hold for the method and conditions named. Binding calls can cover weak binding; strength is not graded here. For some assays here: In cells and extracts the contact can be indirect.
